In article PMC7729981 one finds binding data, which are given here for three molecules.

Protein sequences, listed by entry. Tags and fused reporters are not part of them.
UniProt Q9UM11: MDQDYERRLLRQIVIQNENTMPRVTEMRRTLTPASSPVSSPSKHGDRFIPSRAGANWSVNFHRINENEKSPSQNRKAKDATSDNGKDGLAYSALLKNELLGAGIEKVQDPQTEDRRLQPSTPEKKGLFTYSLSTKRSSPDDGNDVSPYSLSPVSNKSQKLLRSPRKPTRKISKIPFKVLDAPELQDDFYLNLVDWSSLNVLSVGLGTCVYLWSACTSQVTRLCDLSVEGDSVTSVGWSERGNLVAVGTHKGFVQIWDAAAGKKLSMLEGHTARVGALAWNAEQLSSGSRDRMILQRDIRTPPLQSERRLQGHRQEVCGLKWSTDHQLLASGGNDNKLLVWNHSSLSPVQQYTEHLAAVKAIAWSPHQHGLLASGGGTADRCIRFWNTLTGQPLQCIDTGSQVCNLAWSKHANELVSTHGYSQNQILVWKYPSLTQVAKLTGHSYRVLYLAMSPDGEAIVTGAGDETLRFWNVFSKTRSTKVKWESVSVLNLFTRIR

Experiment [1] concerns the target T1, HA-PAH (HA-tagged phenylalanine hydroxylase) (UniProt P00439).
T1 sequence: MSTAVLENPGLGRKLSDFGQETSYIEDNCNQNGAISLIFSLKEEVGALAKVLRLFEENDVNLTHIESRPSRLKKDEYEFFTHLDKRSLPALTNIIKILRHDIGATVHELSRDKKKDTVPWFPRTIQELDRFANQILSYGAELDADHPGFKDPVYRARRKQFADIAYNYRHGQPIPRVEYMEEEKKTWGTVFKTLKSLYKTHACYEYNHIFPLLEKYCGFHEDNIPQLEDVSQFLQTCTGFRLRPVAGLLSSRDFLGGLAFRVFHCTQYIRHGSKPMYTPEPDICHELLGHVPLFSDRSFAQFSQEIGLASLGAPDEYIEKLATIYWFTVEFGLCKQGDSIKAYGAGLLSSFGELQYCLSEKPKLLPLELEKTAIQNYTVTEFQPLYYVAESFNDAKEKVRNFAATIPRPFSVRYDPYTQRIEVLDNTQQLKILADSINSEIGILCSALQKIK
Briefly: co-IP; HA-PAH and Flag-Cdh1 co-transfected in HEK293 cells; 48 h after transfection lysed in 50 mM Tris-HCl pH 7.6, 150 mM NaCl, 1 mM EDTA, 1% Triton X-100; about 3 mg lysate with HA or Flag antibody at 4 °C overnight, protein agarose beads; Western blot with the reciprocal antibody. In general terms: In western blotting, separated proteins are transferred to a membrane and probed.

The target of experiment [2] is Flag-Cdh1 (Flag-tagged Cdh1, coactivator of APC/C) (UniProt Q9UM11). The description is as above.
For experiment [3], the target named is Cdh1 (FZR1), endogenous (human (endogenous in HHSteCs)) (UniProt Q9UM11). In words: co-IP; endogenous proteins in HHSteCs, cells treated with 20 µM MG132 for 8 h; about 6 mg lysate immunoprecipitated with anti-Cdh1 antibody, immunoblotted with PAH antibody.

These are yes or no findings as the source states them, for the method shown. Binding seen in cells or lysates may run through a third protein. Some results given as binding are weak or reduced against the parent protein; the word gives no strength. For part of these data: Sequences can lack the tags named with a protein.

For the molecule “Flag-Cdh1 (Flag-tagged Cdh1, coactivator of APC/C) (from UniProt Q9UM11 1-496)”, in experiment [1], the binding entry is “binds”.

B1: HA-PAH (HA-tagged phenylalanine hydroxylase) (enzyme, UniProt P00439 1-452)
chain: T1 sequence
As to B1, the binding result in experiment [2] was “binds”.

B2: Phenylalanine hydroxylase (PAH), endogenous (enzyme, UniProt P00439 1-452)
chain: T1 sequence
Consider B2, for which the binding entry in experiment [3] was “binds”.
